At least one compound was matched to its structure with a doubt left.
Assays:
Swiss Webster mice = settings: with streptomycin 1000 mg/kg s.c., molar ratio streptomycin:ligand 1:1
C-reactive protein = settings: cited from earlier work

Row | SMILES | Lethality No. Dead/No. Inoculated (Swiss Webster mice) | Binding to C-reactive protein (in words) (C-reactive protein)
1 | O=P(O)(O)OP(=O)(O)OP(=O)(O)O [Tripolyphosphate] | 3/8,4/7 | 
2 | C[N+](C)(C)CCOP(=O)([O-])O [Phosphorylcholine, phosphorylcholine] |  | bind strongly

Reference: patent US4897384A, “Drug preparations of reduced toxicity” (priority 1986, dated 1990)
